The structures appear in SMILES notation. The list shows a part of the results. This is a noisy data set.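 The cells are a human neuroglioma line carrying a green fluorescent autophagy reporter.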

This assay deals with H4 GFP-LC3. In words: cell viability (scaled to control) (fraction of control); higher = more viable cells. Particulars: 6 h.
In turn, `CC1c2ccccc2CN1CC1=NCCN1` (stereo not given) (5 µM) gave a cell viability of 0.946.
To `CN1CCC(=C2c3ccccc3C=Cc3ccccc32)CC1` (5 µM) belongs 0.763; to `N[C@H]1CCN(O)C1=O` (5 µM), 1.19.
As for `COC(=O)Nc1ccc2[nH]cc(CCNC(C)=O)c2c1` (5 µM), the cell viability is 1.13.
`CC(=O)[C@H]1CC[C@H]2[C@@H]3CCC4=CC(=O)CC[C@]4(C)[C@H]3CC[C@]12C` (5 µM): the cell viability was 1.06.
`N=C(CC(O)COc1ccccc1-c1ccccc1)N1CCCCC1` (stereo not given) (5 µM) registered a cell viability of 0.63.
To `C=CCn1c(=O)c2c(nc(-c3ccc(S(=O)(=O)O)cc3)n2C)n(C)c1=O` (5 µM) belongs 0.982.
For the compound `CN(C)CCCN1c2ccccc2Sc2ccc(Cl)cc21` (5 µM), the cell viability is 0.802.
The compound `CN(C)CCCc1cc(C(=O)Nc2ccc(-c3ccncc3)cc2)ccc1O` (5 µM) yielded a cell viability of 0.826.
To `O=C(O)[C@H]1C[C@H](C(=O)O)N1` (5 µM) belongs 1.06.

(Values after the supplement of paper PMC11659162.)
